Among the data in publication PMC10619432 are binding values, retold here.

By UniProt entry, the sequences of proteins in these tests, tags left out.
UniProt Q16513: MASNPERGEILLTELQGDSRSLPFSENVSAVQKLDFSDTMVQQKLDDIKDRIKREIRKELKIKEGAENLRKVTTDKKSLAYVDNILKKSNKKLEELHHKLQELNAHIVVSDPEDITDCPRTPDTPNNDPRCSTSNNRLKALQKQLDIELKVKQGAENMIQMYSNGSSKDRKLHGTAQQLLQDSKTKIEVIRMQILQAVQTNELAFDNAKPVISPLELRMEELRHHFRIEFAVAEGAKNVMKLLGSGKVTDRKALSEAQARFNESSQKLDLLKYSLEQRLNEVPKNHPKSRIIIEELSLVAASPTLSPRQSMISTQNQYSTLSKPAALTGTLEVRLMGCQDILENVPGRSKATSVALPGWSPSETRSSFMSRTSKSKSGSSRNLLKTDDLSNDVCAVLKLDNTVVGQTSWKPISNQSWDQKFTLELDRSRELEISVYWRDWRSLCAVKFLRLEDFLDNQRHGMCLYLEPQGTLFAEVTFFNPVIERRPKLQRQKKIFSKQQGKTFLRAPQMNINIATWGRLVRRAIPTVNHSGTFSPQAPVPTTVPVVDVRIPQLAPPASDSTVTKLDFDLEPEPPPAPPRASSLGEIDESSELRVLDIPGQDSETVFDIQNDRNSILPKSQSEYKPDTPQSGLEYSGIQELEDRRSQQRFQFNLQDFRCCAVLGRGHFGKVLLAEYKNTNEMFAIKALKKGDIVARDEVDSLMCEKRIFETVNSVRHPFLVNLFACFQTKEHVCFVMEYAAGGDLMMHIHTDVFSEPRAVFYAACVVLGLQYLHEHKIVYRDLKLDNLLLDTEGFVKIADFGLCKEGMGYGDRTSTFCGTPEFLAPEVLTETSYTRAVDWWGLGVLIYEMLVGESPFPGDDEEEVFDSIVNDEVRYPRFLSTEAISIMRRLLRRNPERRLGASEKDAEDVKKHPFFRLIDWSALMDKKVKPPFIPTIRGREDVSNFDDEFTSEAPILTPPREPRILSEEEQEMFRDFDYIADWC
UniProt O43586: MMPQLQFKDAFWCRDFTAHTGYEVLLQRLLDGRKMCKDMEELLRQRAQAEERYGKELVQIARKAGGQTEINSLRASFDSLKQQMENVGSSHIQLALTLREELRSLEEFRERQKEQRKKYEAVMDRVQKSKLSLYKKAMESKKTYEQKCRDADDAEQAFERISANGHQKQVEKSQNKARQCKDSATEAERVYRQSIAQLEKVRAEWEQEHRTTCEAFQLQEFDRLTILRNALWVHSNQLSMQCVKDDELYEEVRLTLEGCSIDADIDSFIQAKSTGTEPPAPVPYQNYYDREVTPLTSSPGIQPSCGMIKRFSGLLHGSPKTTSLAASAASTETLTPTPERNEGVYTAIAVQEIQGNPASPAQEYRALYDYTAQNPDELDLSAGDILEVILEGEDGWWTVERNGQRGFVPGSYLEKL

For experiment [1], the target named is T1, pyrin, wild type (encoded by MEFV) (human) (UniProt O15553).
T1 sequence: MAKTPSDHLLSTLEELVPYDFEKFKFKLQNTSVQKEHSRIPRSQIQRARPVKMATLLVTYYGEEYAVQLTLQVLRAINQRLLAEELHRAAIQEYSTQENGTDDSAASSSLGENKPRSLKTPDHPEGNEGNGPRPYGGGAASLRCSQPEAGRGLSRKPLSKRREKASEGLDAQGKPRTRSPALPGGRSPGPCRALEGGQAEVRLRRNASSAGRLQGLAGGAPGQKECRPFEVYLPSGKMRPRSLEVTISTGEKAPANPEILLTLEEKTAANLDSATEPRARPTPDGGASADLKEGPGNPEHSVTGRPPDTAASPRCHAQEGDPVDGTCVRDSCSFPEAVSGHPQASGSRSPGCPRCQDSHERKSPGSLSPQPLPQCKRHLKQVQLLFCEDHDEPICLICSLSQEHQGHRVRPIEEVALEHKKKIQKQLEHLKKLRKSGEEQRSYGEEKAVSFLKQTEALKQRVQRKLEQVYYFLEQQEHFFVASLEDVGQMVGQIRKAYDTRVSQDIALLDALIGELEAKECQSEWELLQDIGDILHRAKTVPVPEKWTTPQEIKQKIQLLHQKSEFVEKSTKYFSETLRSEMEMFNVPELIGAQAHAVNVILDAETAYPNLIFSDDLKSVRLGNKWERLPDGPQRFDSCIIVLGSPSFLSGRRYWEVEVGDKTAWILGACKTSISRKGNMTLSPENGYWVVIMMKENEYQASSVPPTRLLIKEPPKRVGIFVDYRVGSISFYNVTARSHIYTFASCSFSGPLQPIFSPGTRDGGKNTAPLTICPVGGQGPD
As to the kind of experiment: co-IP; HEK293T cells lysed in NP-40 lysis buffer 24 hours after transfection; Flag or HA magnetic beads; eluted in SDS sample loading buffer, Western blot. On the technique in general: Immunoblotting shows a protein as a band on a membrane.

The target in experiment [2] is T2, pyrin E583A variant (human) (UniProt O15553).
T2 sequence: T1 sequence with E583A
Described as above.

Substitutions are numbered along the chain they refer to. These are yes or no findings as the source states them, for the method shown. Binding seen in cells or lysates may run through a third protein. Some entries that bind do so weakly or less than the wild type.

On to PKN2 (from UniProt Q16513 1-984), for which the binding result in experiment [1] and in experiment [2] was “binds” throughout.

Consider PSTPIP1 (from UniProt O43586 1-416), for which the binding result in experiment [1] and in experiment [2] was “binds” in each case.
